Data taken from PubChem BioAssay AID248 (DTP/NCI, 2004).
The list is a part of this screen's results and no random one: it gathers tests that were run many times, whatever their T/C, doses with no T/C, and many T/C values between a quarter and a half above the control. Further doses and runs are listed elsewhere. T/C: endpoint of the treated group in % of that of the vehicle group. Some doses have a count of surviving animals in place of a T/C: the source files T/C as zero there, which appears to mark a toxic dose or a test without result, not a measured value. Some doses without a T/C left all or most animals alive at the check, yet need not have been tolerated: the source hardly ever lists a survival T/C far under the control, and the zero likely stands for such cases as well. Counts of survivors are from the toxicity check (mostly the fifth day) where no day follows; animals may have died later. Schedule codes are those of the source, taken here to give the interval after Q, in days (D) or hours (H), and the number of doses after X. Some entries hold several experiments; the values are given in rising order. Some schedule codes hold Z or #, which are not explained here. For survival time, the PubChem record calls one and a half times the control and up active, and a quarter to a half above the control has no call in these data; cut-offs in other NCI protocols can differ.

Test system: L1210 leukemia ip in BDF1 mice, survival T/C
Experiment: NCI In Vivo Anticancer Drug Screen. Data for tumor model L1210 Leukemia (intraperitoneal) in B6D2F1 (BDF1) mice
Conditions: T/C endpoint: mean survival time, higher T/C = longer survival
[1] = dose: 6.25 mg/kg/injection, schedule: Q01DX001 (ip), vehicle: Klucel (hydroxypropylcellulose) (HPC)
[2] = dose: 100.0 mg/kg/injection, schedule: Q01DX001 (ip), vehicle: Klucel (hydroxypropylcellulose) (HPC)
[3] = dose: 200.0 mg/kg/injection, schedule: Q01DX001 (ip), vehicle: Klucel (hydroxypropylcellulose) (HPC)
[4] = dose: 100.0 mg/kg/injection, schedule: Q01DX009 (ip), vehicle: saline
[5] = dose: 200.0 mg/kg/injection, schedule: Q01DX009 (ip), vehicle: saline
[6] = dose: 400.0 mg/kg/injection, schedule: Q01DX009 (ip), vehicle: saline
[7] = dose: 200.0 mg/kg/injection, schedule: Q01DX001 (ip), vehicle: saline
[8] = dose: 400.0 mg/kg/injection, schedule: Q01DX001 (ip), vehicle: saline
[9] = dose: 400.0 mg/kg/injection, schedule: Q01DX009 (ip), vehicle: gum acacia
[10] = dose: 400.0 mg/kg/injection, schedule: Q01DX001 (ip), vehicle: carboxymethylcellulose (CMC)
[11] = dose: 200.0 mg/kg/injection, schedule: Q01DX001 (ip), vehicle: saline with Tween-80

In the case of `O=C1C=Cc2ccccc2C1=O`, the survivor count [1] is reported as 1 of 3, the survivor count (dose: 12.5 mg/kg/injection, schedule: Q01DX001 (ip), vehicle: Klucel (hydroxypropylcellulose) (HPC)) is reported as 1 of 3 and the survivor count (dose: 25.0 mg/kg/injection, schedule: Q01DX001 (ip), vehicle: Klucel (hydroxypropylcellulose) (HPC)) is reported as 0 of 3. For the same compound, the survivor count (dose: 50.0 mg/kg/injection, schedule: Q01DX001 (ip), vehicle: Klucel (hydroxypropylcellulose) (HPC)) was 0 of 6, the survivor count [2] was 0 of 6 and the survivor count [3] was 1 of 6.

With `COc1cc(C)c(C(=O)Oc2cc(C)c(C(=O)O)c(O)c2C)c(OC)c1C` the survivor count (dose: 50.0 mg/kg/injection, schedule: Q01DX009 (ip), vehicle: saline) was 0 of 6, the survivor count [4] was 0 of 6 and the survivor count [5] was 0 of 6. The survivor count (dose: 200.0 mg/kg/injection, schedule: Q01DX Z (ip), vehicle: saline) was 0 of 4, the survivor count (dose: 300.0 mg/kg/injection, schedule: Q01DX Z (ip), vehicle: saline) was 0 of 4 and the survivor count [6] was 0 of 6. The survivor count (dose: 400.0 mg/kg/injection, schedule: Q01DX Z (ip), vehicle: saline) was 0 of 4 and the survivor count (dose: 500.0 mg/kg/injection, schedule: Q01DX Z (ip), vehicle: saline) was 0 of 4.

For `CCN(CC)CCCC(C)Nc1ccnc2cc(Cl)ccc12` (stereo not drawn), the survivor count [4] was 3 of 6, the survivor count [7] was 0 of 4 and 2 of 6 and the survivor count [5] was 0 of 6. For the same compound, the survivor count (dose: 200.0 mg/kg/injection, schedule: Q04DX003 (ip), vehicle: saline) was 1 of 6 and the survivor count [8] was 0 of 4.

For `COc1c(Cl)c(Cl)c(Cl)c(Cl)c1Cl`, the survivor count [6] was 6 of 6.

With `CCCCN1C(=O)C2C3CCC(O3)C2C1=O` (stereo not drawn) the survivor count (dose: 400.0 mg/kg/injection, schedule: Q04DX002 (ip), vehicle: Klucel (hydroxypropylcellulose) (HPC)) was 1 of 3.

In the case of `ClCc1cc(Cl)c(Cl)cc1Cl`, the survivor count (dose: 200.0 mg/kg/injection, schedule: Q04DX003 (ip), vehicle: acetone) is reported as 5 of 6, the survivor count (dose: 225.0 mg/kg/injection, schedule: Q01DX009 (ip), vehicle: acetone) is reported as 1 of 6 and the survivor count (dose: 335.0 mg/kg/injection, schedule: Q01DX009 (ip), vehicle: acetone) is reported as 1 of 6. The survivor count (dose: 400.0 mg/kg/injection, schedule: Q04DX003 (ip), vehicle: acetone) was 0 of 6.

For `O=C1N(CCO)CNC1(c1ccccc1)c1ccccc1`, the survivor count (dose: 400.0 mg/kg/injection, schedule: Q01DX001 (ip), vehicle: saline with Tween-80) was 3 of 6.

With `CC(O)C(C)(O)C(=O)O` (stereo not drawn) the survivor count [6] was 2 of 6.

With `C/C(C(=O)O)=C(/Cl)c1c(C)cc(C)c(Br)c1C` the survivor count [9] was 0 of 6.

In the case of `C[N+]1(CCCNC2=CC(=O)C(NCCC[N+]3(C)CCCCC3)=CC2=O)CCCCC1`, the survivor count (dose: 1.0 mg/kg/injection, schedule: Q01DX001 (ip), vehicle: saline) is reported as 2 of 6, the survivor count (dose: 2.0 mg/kg/injection, schedule: Q01DX001 (ip), vehicle: saline) is reported as 0 of 6 and the survivor count (dose: 4.0 mg/kg/injection, schedule: Q01DX001 (ip), vehicle: saline) is reported as 1 of 6. The survivor count (dose: 5.0 mg/kg/injection, schedule: Q01DX001 (ip), vehicle: saline) was 0 of 6, the survivor count (dose: 8.0 mg/kg/injection, schedule: Q01DX001 (ip), vehicle: saline) was 0 of 6 and the survivor count (dose: 10.0 mg/kg/injection, schedule: Q01DX001 (ip), vehicle: saline) was 0 of 6. The survivor count (dose: 20.0 mg/kg/injection, schedule: Q01DX001 (ip), vehicle: saline) was 0 of 6, the survivor count (dose: 40.0 mg/kg/injection, schedule: Q01DX001 (ip), vehicle: saline) was 0 of 6 and the survivor count (dose: 80.0 mg/kg/injection, schedule: Q01DX001 (ip), vehicle: saline) was 0 of 6. The survivor count (dose: 100.0 mg/kg/injection, schedule: Q01DX001 (ip), vehicle: saline) was 0 of 6, the survivor count [7] was 0 of 6 and the survivor count [8] was 0 of 6.

In the case of `COC(=O)CC(Br)CBr` (stereo not drawn), the survivor count [10] is reported as 2 of 4.

For `COc1ccc(O)c(Br)c1`, the survivor count (dose: 400.0 mg/kg/injection, schedule: Q01DX009 (ip), vehicle: other) was 6 of 6.

In the case of `Nc1ccc(Cc2ccc(N)cc2)cc1`, the survivor count (dose: 200.0 mg/kg/injection, schedule: Q01DX009 (ip), vehicle: gum acacia) is reported as 0 of 6 and the survivor count [9] is reported as 0 of 6.

In the case of `O=[N+]([O-])c1cc(C(F)(F)F)cc([N+](=O)[O-])c1Cl`, the T/C [1] is reported as 125 % of control, the survivor count [2] is reported as 0 of 3 and the survivor count [3] is reported as 1 of 3. For the same compound, the survivor count (dose: 400.0 mg/kg/injection, schedule: Q01DX001 (ip), vehicle: Klucel (hydroxypropylcellulose) (HPC)) was 0 of 3.

`CC(C)OCCCN` was tested, and the survivor count [10] was 0 of 4.

`CC(=O)c1ccc(N=C=O)cc1` was tested, and the survivor count (dose: 100.0 mg/kg/injection, schedule: Q01DX001 (ip), vehicle: saline with Tween-80) was 3 of 3 and the survivor count [11] was 3 of 3.

With `Oc1ccc(/C=N/NC(=S)NN2CCOCC2)nc1` the survivor count (dose: 50.0 mg/kg/injection, schedule: Q01DX009 (ip), vehicle: saline with Tween-80) was 1 of 3, the survivor count (dose: 75.0 mg/kg/injection, schedule: Q04DX002 (ip), vehicle: saline with Tween-80) was 3 of 3 and the survivor count (dose: 100.0 mg/kg/injection, schedule: Q01DX009 (ip), vehicle: saline with Tween-80) was 1 of 3.

`COc1cc(C(=O)OCCN(C(C)C)C(C)C)cc(OC)c1OC` was tested, and the survivor count (dose: 400.0 mg/kg/injection, schedule: Q04DX003 (ip), vehicle: saline) was 2 of 6.

`O=C(c1ccccc1)C1(Br)CCCCC1` was tested, and the survivor count [5] was 6 of 6.

With `O=NN(CCCl)C(=O)N[C@H]1CCCC[C@H]1O` the survivor count (dose: 90.0 mg/kg/injection, schedule: Q01DX001 (ip), vehicle: saline with Tween-80) was 10 of 10, the survivor count (dose: 133.0 mg/kg/injection, schedule: Q01DX001 (ip), vehicle: saline with Tween-80) was 10 of 10 and the survivor count [11] was 10 of 10.

In the case of `Oc1ccccc1O.[O-]c1ccccc1[O-].[O-]c1ccccc1[O-].[O]=[V+2]`, the survivor count (dose: 75.0 mg/kg/injection, schedule: Q01DX009 (ip), vehicle: saline) is reported as 2 of 6, the survivor count (dose: 115.0 mg/kg/injection, schedule: Q04DX003 (ip), vehicle: saline) is reported as 0 of 6 and the survivor count (dose: 170.0 mg/kg/injection, schedule: Q04DX003 (ip), vehicle: saline) is reported as 0 of 6.

`C(=C(\C[P+](c1ccccc1)(c1ccccc1)c1ccccc1)c1ccccc1)/c1ccccc1` was tested, and the survivor count (dose: 10.0 mg/kg/injection, schedule: Q01DX009 (ip), vehicle: saline with Tween-80) was 3 of 6, the survivor count (dose: 10.0 mg/kg/injection, schedule: Q04DX003 (ip), vehicle: saline with Tween-80) was 6 of 6 and the survivor count (dose: 20.0 mg/kg/injection, schedule: Q01DX009 (ip), vehicle: saline with Tween-80) was 2 of 6. The survivor count (dose: 100.0 mg/kg/injection, schedule: Q04DX003 (ip), vehicle: saline with Tween-80) was 0 of 6, the survivor count (dose: 200.0 mg/kg/injection, schedule: Q04DX003 (ip), vehicle: saline with Tween-80) was 0 of 6 and the survivor count (dose: 400.0 mg/kg/injection, schedule: Q04DX003 (ip), vehicle: saline with Tween-80) was 0 of 6.
